The source of these data is publication PMC7977470.

No constants are given. Whether binding was seen depends on the method and setting. In cells and extracts the contact can be indirect. Here binding means that the protein was enriched with, or labelled near, the bait; the list need not be complete.

The assay deals with T1, kallikrein-related peptidase 8 (KLK8) in rat myocardium (not stated (in rat myocardium; species of the KLK8 transgene not told)) (UniProt O88780).
T1 sequence: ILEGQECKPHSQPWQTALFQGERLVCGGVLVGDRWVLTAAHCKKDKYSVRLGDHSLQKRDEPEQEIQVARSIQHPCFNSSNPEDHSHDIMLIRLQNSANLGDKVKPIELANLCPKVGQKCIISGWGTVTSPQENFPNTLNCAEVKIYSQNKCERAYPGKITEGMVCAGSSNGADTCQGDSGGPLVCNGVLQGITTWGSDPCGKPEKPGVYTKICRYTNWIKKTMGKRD
As to the kind of experiment: affinity purification with mass spectrometry; protein extract of the myocardium of KLK8 transgenic rats immunoprecipitated with anti-KLK8; SDS-PAGE, in-gel trypsin digestion, UPLC-MS/MS; search against the Rattus database (UniProtKB/Swiss-Prot).

B1: plakoglobin (rat) (protein, UniProt Q6P0K8 1-745)
chain: MEVMNLIEQPIKVTEWQQTYTYDSGIHSGVNTCVPSVSSKGLLDEDDTCGRQYTLKKTTTYTQGVPQSQGDLEYQMSTTARAKRVREAMCPGVSGEDSSLLLATQVEGQTTNLQRLAEPSQLLKSAIVHLINYQDDAELATRALPELTKLLNDEDPVVVTKAAMIVNQLSKKEASRRALMGSPQLVAAVVRTMQNTSDLDTARCTTSILHNLSHHREGLLAIFKSGGIPALVRMLSSPVESVLFYAITTLHNLLLYQEGAKMAVRLADGLQKMVPLLNKNNPKFLAITTDCLQLLAYGNQESKLIILANGGPQGLVQIMRNYSYEKLLWTTSRVLKVLSVCPSNKPAIVEAGGMQALGKHLTSNSPRLVQNCLWTLRNLSDVATKQEGLENVLKILVNQLSVDDVNVLTCATGTLSNLTCNNSKNKTLVTQNSGVEALIHAILRAGDKDDITEPAVCALRHLTSRHPEAEMAQNSVRLNYGIPAIVKLLNQPNQWPLVKATIGLIRNLALCPANHAPLQEAAVIPRLVQLLVKAHQDAQRHVAAGTQQPYTDGVRMEEIVEGCTGALHILARDPMNRMEIFRLNTIPLFVQLLYSSVENIQRVAAGVLCELAQDKEAADAIDAEGASAPLMELLHSRNEGTATYAAAVLFRISEDKNPDYRKRVSVELTNSLFKHDPAAWEAAQSMIPINEPYADDMDATYRPMYSSDVPLDPLDMHMDMDGDYPMDTYSDGLRPPYPAADHMLA
As for B1, the binding result is recorded as “binds”.
